Assay results from the supplement of paper PMC8728848.
The list shows a part of the results.

Tests used:
Assay in all cases: glycan array binding signal (z-score within array); higher = stronger binding
Settings in all cases: glycan notation: IUPAC condensed, linker removed
[1] = biological target: Neu5Ac(a2-8)Neu5Ac
In short: (§1)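 Glycan array data were curated from 3228 arrays in the Consortium for Functional Glycomics database and kept only where the protein sequence was available. Glycan names were converted to IUPAC-condensed notation, and columns mapping to the same glycan were averaged. The binding signal is a within-array Z-score, averaged across arrays of the same protein sequence at different concentrations or buffers and across linkers. Negative Z-scores can be read as non-binding.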

[2] = biological target: Neu5Ac(a2-8)Neu5Ac(a2-3)Gal(b1-3)GalNAc(b1-4)[Neu5Ac(a2-3)]Gal(b1-4)Glc
In short: as §1

[3] = biological target: Neu5Ac(a2-8)Neu5Ac(a2-3)Gal(b1-3)GalNAc(b1-4)[Neu5Ac(a2-8)Neu5Ac(a2-3)]Gal(b1-4)Glc
In short: as §1

[4] = biological target: Neu5Ac(a2-8)Neu5Ac(a2-3)Gal(b1-4)Glc
In short: as §1

[5] = biological target: Neu5Ac(a2-8)Neu5Ac(a2-3)Gal(b1-4)GlcNAc
In short: as §1

[6] = biological target: Neu5Ac(a2-8)Neu5Ac(a2-3)[Gal(b1-3)GalNAc(b1-4)]Gal(b1-4)Glc
In short: as §1

[7] = biological target: Neu5Ac(a2-8)Neu5Ac(a2-3)[GalNAc(b1-4)]Gal(b1-4)Glc
In short: as §1

[8] = biological target: Neu5Ac(a2-8)Neu5Ac(a2-8)Neu5Ac
In short: as §1

[9] = biological target: Neu5Ac(a2-8)Neu5Ac(a2-8)Neu5Ac(a2-3)Gal(b1-4)Glc
In short: as §1

[10] = biological target: Neu5Ac(a2-8)Neu5Ac(a2-8)Neu5Ac(a2-3)[Gal(b1-3)GalNAc(b1-4)]Gal(b1-4)Glc
In short: as §1

[11] = biological target: Neu5Ac(a2-8)Neu5Ac(a2-8)Neu5Ac(a2-3)[GalNAc(b1-4)]Gal(b1-4)Glc
In short: as §1

[12] = biological target: Neu5Ac(a2-8)Neu5Ac(a2-8)Neu5Ac(a2-8)Neu5Ac(a2-3)[GalNAc(b1-4)]Gal(b1-4)Glc
In short: as §1

[13] = biological target: Neu5Ac(a2-8)Neu5Gc(a2-3)Gal(b1-4)GlcNAc
In short: as §1

[14] = biological target: Neu5Ac(b2-6)Gal(b1-4)GlcNAc
In short: as §1

[15] = biological target: Neu5Ac(b2-6)GalNAc
In short: as §1

[16] = biological target: Neu5Ac9Ac(a2-3)Gal(b1-3)GlcNAc
In short: as §1

[17] = biological target: Neu5Ac9Ac(a2-3)Gal(b1-4)GlcNAc
In short: as §1

[18] = biological target: Neu5Ac9Ac(a2-6)Gal(b1-4)GlcNAc
In short: as §1

[19] = biological target: Neu5Gc(a2-3)Gal(b1-3)GlcNAc
In short: as §1

[20] = biological target: Neu5Gc(a2-3)Gal(b1-3)[Fuc(a1-4)]GlcNAc
In short: as §1

[21] = biological target: Neu5Gc(a2-3)Gal(b1-4)Glc
In short: as §1

[22] = biological target: Neu5Gc(a2-3)Gal(b1-4)GlcNAc
In short: as §1

[23] = biological target: Neu5Gc(a2-3)Gal(b1-4)GlcNAc(b1-3)Gal(b1-4)GlcNAc(b1-2)Man(a1-3)[Neu5Gc(a2-3)Gal(b1-4)GlcNAc(b1-3)Gal(b1-4)GlcNAc(b1-2)Man(a1-6)]Man(b1-4)GlcNAc(b1-4)GlcNAc
In short: as §1

[24] = biological target: Neu5Gc(a2-3)Gal(b1-4)[Fuc(a1-3)]GlcNAc
In short: as §1

[25] = biological target: Neu5Gc(a2-6)Gal(b1-4)GlcNAc
In short: as §1

[26] = biological target: Neu5Gc(a2-6)GalNAc
In short: as §1

[27] = biological target: Neu5Gc(a2-8)Neu5Ac(a2-3)Gal(b1-4)GlcNAc
In short: as §1

[28] = biological target: Neu5Gc(a2-8)Neu5Gc(a2-3)Gal(b1-4)GlcNAc
In short: as §1

[29] = biological target: Neu5Gc(a2-8)Neu5Gc(a2-3)Gal(b1-4)GlcNAc(b1-3)Gal(b1-4)GlcNAc
In short: as §1

[30] = biological target: Neu5Gc(a2-8)Neu5Gc(a2-6)Gal(b1-4)GlcNAc
In short: as §1

[31] = biological target: Neu5Gc(b2-6)Gal(b1-4)GlcNAc
In short: as §1

B1: B3GalT2 (Rattus norvegicus) (protein)
chain: LMLQWRRRHCCFAKMSWNAKRSLFRTHLMGVLSLVFLFAMFLFFNHHDWLPGRPGFKENPVTYTFRGFRSTKTETNQSSLRNIWKEVVPQTLRPQTATNSNNTELSPQGVTGLENTLSANGSIYNEKGTGHPNSYHFKYIINEPEKCQEKSPFLILLIAAEPGQIEARRAIRQTWGNETLAPGIQITRIFLLGISIKLNGYLQHAIQEESIQYHDIIQQEYLDTYYNLTIKTLMGMNWVATYCPHTPYVMKTDSDMFVNTEYLIHKLLKPDLPPRHNYFTGYLMRGYAPNRNKDSKWYMPPDLYPSERYPVFCSGTGYVFSGDLAEKIFKVSLGIRRLHLEDVYVGICLAKLRVDPVPPPNEFVFNHWRVSYSSCKYSHLITSHQFQPSELIKYWNHLQQNKHNACVNAAKEKAGRYRHRKLH
B1 was tested, and the “glycan array binding signal (z-score)” value [1] was 0.408, the “glycan array binding signal (z-score)” value [2] was 0.781 and the “glycan array binding signal (z-score)” value [3] was -0.446. The “glycan array binding signal (z-score)” value [4] was -0.919, the “glycan array binding signal (z-score)” value [5] was 1.28 and the “glycan array binding signal (z-score)” value [6] was 0.167. For the same binder, the “glycan array binding signal (z-score)” value [7] was 0.406, the “glycan array binding signal (z-score)” value [8] was 1.37 and the “glycan array binding signal (z-score)” value [9] was 0.472. The “glycan array binding signal (z-score)” value [10] was 0.932, the “glycan array binding signal (z-score)” value [11] was -0.726 and the “glycan array binding signal (z-score)” value [12] was 0.208. For the same binder, the “glycan array binding signal (z-score)” value [13] was 0.021, the “glycan array binding signal (z-score)” value [14] was -0.66 and the “glycan array binding signal (z-score)” value [15] was 0.607. For the same binder, the “glycan array binding signal (z-score)” value [16] was 0.245, the “glycan array binding signal (z-score)” value [17] was 0.724 and the “glycan array binding signal (z-score)” value [18] was 1.57. For the same binder, the “glycan array binding signal (z-score)” value [19] was 0.899, the “glycan array binding signal (z-score)” value [20] was 0.464 and the “glycan array binding signal (z-score)” value [21] was -0.536. For the same binder, the “glycan array binding signal (z-score)” value [22] was -0.077, the “glycan array binding signal (z-score)” value [23] was -0.845 and the “glycan array binding signal (z-score)” value [24] was -0.164. The “glycan array binding signal (z-score)” value [25] was -0.599, the “glycan array binding signal (z-score)” value [26] was -0.326 and the “glycan array binding signal (z-score)” value [27] was -0.333. For the same binder, the “glycan array binding signal (z-score)” value [28] was -0.457, the “glycan array binding signal (z-score)” value [29] was 0.701 and the “glycan array binding signal (z-score)” value [30] was 0.689. The “glycan array binding signal (z-score)” value [31] was 0.124.
